Experimental data from article PMC6504953, “Cauliflower mosaic virus transactivator protein (TAV) can suppress nonsense-mediated decay by targeting VARICOSE, a scaffold protein of the decapping complex” (Scientific Reports, 2019).
Results are given in words; binding and its absence hold for the method and conditions named. Sequences can lack the tags named with a protein.

Biological target: C-terminal domain of TAV fused to the Gal4 binding domain (Cauliflower mosaic virus (strain CM1841))
Test: two-hybrid; Gal4 AD and BD fusions co-transformed in yeast strain AH109; selection on medium lacking Leu, Trp and Ade; equal OD600 units and 1/10 and 1/100 dilutions spotted, 2 days; self-interaction of TAV: two fusions of entire TAV

B1: VCS-C2 domain (aa 1181-1341) fused to the Gal4 activation domain (domain or fragment, UniProt Q9LTT8 1181-1341)
chain: NSGGSNSLVTQLSGGPLGALLEKVEAPMDPTTELSRLISERKYEESFTSALQRSDVSIVSWLCSQVDLRGLLAMNPLPLSQGVLLSLLQQLACDISKDTSRKLAWMTDVVAAINPSDQMIAVHARPIFEQVYQILHHHRNAPGSDVSAIRLIMHVINSMLM
  binding: no binding
